Values quoted from earlier work, collected in patent US20240366505A1, “Liquid Resin Extended-Release Oral Naltrexone Formulation for Treating Autism-Related Disorders” (AARDVARK THERAPEUTICS, INC., priority 2022, published 2024).
Some results were stated once for a whole list of compounds, not compound by compound. At least one structure is not confirmed: it was looked up by name or label, or the drawing left a doubt.

Details: oral administration

O=C1CC[C@@]2(O)[C@H]3Cc4ccc(O)c5c4[C@@]2(CCN3CC2CC2)[C@H]1O5 [naltrexone, 17-(cyclopropylmethyl)-4,5α-epoxy-3,14-dihydroxy-morphinan-6-one]
time of peak plasma levels after dosing: ≤ 1 h

Oc1ccc2c3c1O[C@H]1[C@H](O)CC[C@@]4(O)[C@@H](C2)N(CC2CC2)CC[C@]314 [6-β-naltrexol]
time of peak plasma levels after dosing: ≤ 1 h
